These are yes or no findings as the source states them, for the method shown. Some entries that bind do so weakly or less than the wild type. Each block holds one binder with its values, some of them ahead of it.
What was measured:
[1] = target: T1, mouse cell surface latent TGF-beta 1 (mouse, UniProt P04202 30-390); test: FACS on Ba/F3 cells (FIG. 29A)
T1 construct: Endogenous latent TGF-beta 1 (forming LLC) on Ba/F3 cells, and the latent TGF-beta 1 of mouse PBMC in the co-culture assay; also called cell surface mouse latent TGF-beta 1; latent TGF-beta 1 on Ba/F3 cells

By UniProt entry, the sequences of proteins in these tests, tags left out. Where a name states a change or a piece, a line headed by the entry shows the natural chain unless it says otherwise.
UniProt P04202: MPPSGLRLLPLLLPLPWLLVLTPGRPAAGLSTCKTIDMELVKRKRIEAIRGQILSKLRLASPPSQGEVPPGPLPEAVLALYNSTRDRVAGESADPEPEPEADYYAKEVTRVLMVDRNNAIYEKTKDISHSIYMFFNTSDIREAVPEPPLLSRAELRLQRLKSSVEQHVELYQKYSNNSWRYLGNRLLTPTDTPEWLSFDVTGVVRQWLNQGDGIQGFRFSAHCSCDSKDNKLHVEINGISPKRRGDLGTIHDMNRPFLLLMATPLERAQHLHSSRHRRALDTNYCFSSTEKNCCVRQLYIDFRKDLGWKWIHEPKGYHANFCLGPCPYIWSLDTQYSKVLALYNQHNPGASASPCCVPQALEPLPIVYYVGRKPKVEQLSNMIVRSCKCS
UniProt P01137: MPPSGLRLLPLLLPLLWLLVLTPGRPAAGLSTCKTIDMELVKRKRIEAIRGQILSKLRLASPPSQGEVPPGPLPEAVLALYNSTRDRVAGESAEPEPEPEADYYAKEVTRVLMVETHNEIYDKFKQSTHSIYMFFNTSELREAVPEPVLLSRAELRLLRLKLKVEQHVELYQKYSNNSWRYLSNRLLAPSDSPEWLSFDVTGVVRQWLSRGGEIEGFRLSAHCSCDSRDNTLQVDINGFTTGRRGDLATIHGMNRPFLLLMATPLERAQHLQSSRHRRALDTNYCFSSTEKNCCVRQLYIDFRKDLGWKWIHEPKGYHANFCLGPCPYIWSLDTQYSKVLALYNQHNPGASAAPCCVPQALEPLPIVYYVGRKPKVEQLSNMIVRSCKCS

[2] = target: T1, mouse cell surface latent TGF-beta 1; test: FACS on Ba/F3 cells that endogenously express latent TGF-beta 1 forming LLC
[3] = target: T1, mouse cell surface latent TGF-beta 1; test: FACS on Ba/F3 cells, PE-labelled secondary antibody, MFI
Experimental: (§1) Anti-latent TGF-beta 1 antibodies were incubated with each cell line for 30 minutes at 4 degrees C. and washed with FACS buffer (2% FBS, 2 mM EDTA in PBS). Anti-KLH antibody (IC17) was used for a negative control antibody. Goat F(ab′)2 anti-Human IgG, Mouse ads-PE (Southern Biotech, Cat. 2043-09) or Goat F(ab′)2 anti-Mouse IgG(H+L), Human Ads-PE (Southern Biotech, Cat. 1032-09) was then added and incubated for 30 minutes at 4 degrees C. and washed with FACS buffer. Data acquisition was performed on an FACS Verse (Becton Dickinson), followed by analysis using FlowJo software (Tree Star) and GraphPad Prism software (GraphPad).

[4] = target: recombinant mouse latent TGF-beta 1 (Flag-tagged mouse latent TGF-beta 1) (mouse) (UniProt P04202); test: Biacore tandem blocking assay, FLAG-tagged mouse latent TGF-beta 1 captured on anti-FLAG M2, antibody 500 nM
[5] = target: T2, human cell surface latent TGF-beta 1 (human, UniProt P01137 30-390); test: FACS on FreeStyle 293-F cells (FIG. 29B)
T2 construct: also called cell surface human latent TGF-beta 1

[6] = target: T2, human cell surface latent TGF-beta 1; test: FACS on FreeStyle 293-F cells that endogenously express latent TGF-beta 1 forming LLC
[7] = target: T2, human cell surface latent TGF-beta 1; test: FACS on FreeStyle 293-F cells, PE-labelled secondary antibody, MFI
Experimental: as §1

binding [1]: binds | binding [2]: binds | binding [3]: binds | binding [4]: binds
B1: TBS139 (antibody, mouse IgG1, kappa, V domains shown)
VH: QSLEESGGDLVKPGASLTLTCTASGFSFSSYWMSWVRQAPGKGLEYIGMISIIGTTYYASWAKGRFTISKTSSTTVTLQVTSLTAADTATYFCARGYVSNSNYWGLWGPGTLVTVSS
VL: AYDMTQTPASVEVAVGGTVTIKCQASQNIGSNLAWYQQKPGQPPKLLIYYASDLASGVPSRFKGSGSGTRYTLTISGVQCDDAATYYCQQYWSSSNVDNTFGGGTEVVVKR

binding [1]: binds | binding [2]: binds | binding [3]: binds | binding [4]: binds
B2: TBS182 (antibody, V domains shown)
VH: QSLEESGGDLVKPGASLTLTCTASGFSFSRSYYMCWVRQAPGKGLEWIACIYGGSSGSTWYASWAKGRFTISKTSSTTVTLQMTSLTAADTATYFCARDIGNYYRWWGPGTLVTVSS
VL: AVVLTQTTSPVSAPVGGTVTIKCQASKNIYSLLAWYQQKPGQPPKLLIYDASTLASGVPSRFKGSGSGTQFTLTISDLECADAATYYCQSYYDSSSSADLSTFGGGTEVVVKR

binding [5]: binds | binding [6]: binds | binding [7]: binds
B3: TBA1300 (antibody, human IgG1, kappa, V domains shown)
VH: QEQLKESGGGLVTPGGTLTLTCTVSGFSLSNYDMSWVRQAPGKGLEWIGAIYTAGTTSYASWAKGRFTISKTSTTVDLKITSPTTEDTATYFCARGGSSFFYYAAHNIWGPGTLVTVSS
VL: AYDMTQTPASVEAAVGGTVTIKCQASQSIGSNLAWYQQKPGQPPKLLIYDASKLPSGVPSRFKGSGSGTEFTLTISDLECDDAATYYCQQYYTTSDVDNTFGGGTKVEIKR
notes: also called TBA1300ff-F1332m
